In all, about 330,000 compounds went through this assay and about 610 (0.18%) were called active. Inconclusive means that the source gave no clear call. Such entries were picked first, then a sample of the others. Calls come from the whole dose curve. Potencies of inconclusive entries are doubtful fits and often do not repeat.
Test: qHTS of Yeast-based Assay for SARS-CoV PLP; note: nearly all actives have a fitted effect of over 55% in size
Conditions: S. cerevisiae expressing SARS-CoV PLpro; Potency: growth rescue; series mostly up to 32.9 µM
In the case of COC(=O)c1cccc(NC(=S)N2CCN(C)CC2)c1, the Potency is reported as inconclusive: 20 µM [activator, single point].
For COC(=O)c1cc2c(C)cc3ccc(C)cn3c-2c1C(=O)OC, the Potency was “inactive”.
With COc1cc(C(=O)NCC(=O)N/N=C(/C)c2cccs2)cc(OC)c1OC the Potency was inconclusive: 3.55 µM [activator, single point].
In the case of COc1ccccc1N1CCN(C(=O)C2CCN(C(=O)c3ccccc3C)CC2)CC1, the Potency is reported as inconclusive: 3.98 µM [activator, single point].
For CNC(=S)Nc1ccc2nc(C)oc2c1, the Potency was “inactive”.
For COc1ccc(N2CCN(C(=O)COC(=O)c3oc4ccc(OC)cc4c3C)CC2)cc1, the Potency was inconclusive: 4.47 µM [activator, single point].
In the case of CCCN(Cc1ccccc1)C(=S)Nc1ccc(OC(F)F)cc1, the Potency is reported as inconclusive: 11.2 µM [activator, partial curve].
For CCc1noc(C)c1C(=O)Nc1ccccc1C(C)(C)C, the Potency was inconclusive: 2.82 µM [activator, partial curve].
For Oc1ccc2n[nH]nc2c1, the Potency was inconclusive: 3.98 µM [activator, single point].
In the case of COc1ccc(-c2nnc(C3CCN(S(=O)(=O)c4ccccc4)CC3)o2)cc1, the Potency is reported as inconclusive: 11.2 µM [activator, partial curve].
With Cc1nn(-c2ccccc2)c(C)c1/C=N/NC(=O)CSc1nc2ccccc2c(=O)n1-c1ccc(Br)cc1 the Potency was “inactive”.
In the case of CCN1CCN(C(=O)NC(c2ccc(C)c(F)c2)C(Cl)Cl)CC1 (stereo not given), the Potency is reported as inconclusive: 4.47 µM [activator, single point].
In the case of CC(=O)N1CCc2cc(S(=O)(=O)NC(CC(C)C)C(=O)Nc3cc(C(=O)O)ccc3C)ccc21 (stereo not given), the Potency is reported as inconclusive: 2.51 µM [activator, single point].
For CCCCCc1cccnc1, the Potency was “inactive”.
With CC(C)(C)C(=O)Nc1sc2c(c1C#N)CCCCC2 the Potency was inconclusive: 11.2 µM [activator, single point].
With COc1ccc(OCC(=O)Nc2ccccc2N2CCCCC2)cc1 the Potency was “inactive”.
In the case of CCc1cc2c(=O)c(-c3nc4ccccc4n3C)coc2c(CN2CCOCC2)c1O, the Potency is reported as inconclusive: 0.316 µM [activator, full curve, poor fit].
For Cc1ccc(OCC(=O)NNC(=O)C2CCN(c3nccc(C)n3)CC2)cc1, the Potency was inconclusive: 1 µM [activator, full curve].
With CCn1cc(C(=O)N2CCc3ccccc32)c(=O)c2cc(S(=O)(=O)N3CC(C)CC(C)C3)ccc21 (stereo not given) the Potency was inconclusive: 2.82 µM [activator, partial curve].
With Cc1ccc(SCCCCN2CCOCC2)cc1 the Potency was “inactive”.
For CC(C)(C)CN1CCC(Oc2cccc(C(=O)NCCCOc3cccnc3)c2)CC1, the Potency was inconclusive: 3.16 µM [activator, single point].
With COc1ccccc1NC(c1cccnc1)c1ccc2cccnc2c1O (stereo not given) the Potency was active: 4.47 µM.
For Cc1nc(SCC(=O)N2CCOCC2)c2c(=O)n(C)c(=O)n(CC(C)C)c2n1, the Potency was inconclusive: 2.82 µM [activator, partial curve].
In the case of CN(C)c1ccc(/C=C(/NC(=O)c2ccccc2Cl)C(=O)NCCN2CCOCC2)cc1, the Potency is reported as inconclusive: 22.4 µM [activator, single point].
For CCCCOC(=O)Nc1ccc(S(=O)(=O)Nc2ccc([N+](=O)[O-])cc2)cc1, the Potency was “inactive”.
In the case of O=c1[nH]c(=O)n(Cc2ccco2)c(O)c1C=NCCCn1ccnc1, the Potency is reported as inconclusive: 4.47 µM [activator, single point].
With O=c1cc(O)c2ccccc2n1Cc1ccccc1F the Potency was “inactive”.
With N#Cc1ccc[n+](CC(=O)c2ccc(NC(=O)c3ccccc3)cc2)c1 the Potency was “inactive”.
For CCn1c(SCC(=O)c2ccc3c(c2)OCCO3)nnc1-c1ccco1, the Potency was “inactive”.
For COc1ccccc1NC(=S)NC(=O)C(C)C, the Potency was inconclusive: 20 µM [activator, single point].
For CCc1[nH]c(=S)c(C#N)c(-c2ccccc2)c1C(=O)OC, the Potency was inconclusive: 11.2 µM [activator, partial curve, poor fit].
For O=C(Cn1ncc2c([nH]c3ccccc32)c1=O)Nc1ccc(F)cc1F, the Potency was inconclusive: 20 µM [activator, single point].
In the case of CCCc1nnc(NC(=O)CCC(=O)N2CCC(Cc3ccccc3)CC2)s1, the Potency is reported as inconclusive: 15.8 µM [activator, single point].
For COc1cccc(NC(=O)Cn2cnc3c(oc4nc5c(cc43)CCCC5)c2=O)c1, the Potency was inconclusive: 3.98 µM [activator, single point].
With COc1ccc(NC(=O)c2csc(Cc3ccccc3)n2)cc1 the Potency was “inactive”.
With CCOc1ccc(/C(O)=C2/C(=O)C(=O)N(CCOCCO)C2c2ccccn2)cc1 (stereo not given) the Potency was inconclusive: 11.2 µM [activator, single point].
In the case of Cc1ccc(NC(=O)CN2C(=O)S/C(=C\c3ccc(C(=O)O)cc3)C2=O)cc1, the Potency is reported as inconclusive: 2.82 µM [activator, single point].
For Cc1c(Cl)cccc1N1CC(C)(C)C1=O, the Potency was “inactive”.
For COc1cc(-n2c(-c3ccccc3)n[nH]c2=S)c(OC)cc1Cl, the Potency was “inactive”.
In the case of CCCCn1c(SCC(=O)NC2CCS(=O)(=O)C2)nc2ccccc2c1=O (stereo not given), the Potency is reported as inconclusive: 4.47 µM [activator, single point].
In the case of Fc1ccc(NC(=S)NCc2ccccc2Cl)cc1, the Potency is reported as inconclusive: 12.6 µM [activator, single point].
For CC(C)[C@H](N)C(=O)N1CCC(C(=O)N[C@@H](Cc2ccccc2)C(=O)NCc2ccc(F)cc2)CC1, the Potency was inconclusive: 3.55 µM [activator, single point].
In the case of CCN1CCN(CC(=O)Nc2sc3c(c2C#N)CCC(C)C3)CC1 (stereo not given), the Potency is reported as inconclusive: 2.51 µM [activator, single point].
With O=C(O)/C=C\C(=O)Nc1ccc(N2CCN(c3ccc(Cl)cc3)CC2)cc1 the Potency was “inactive”.
In the case of O=C(Nc1ccc(S(=O)(=O)Nc2nccc(C3Cc4ccccc4C(=O)O3)n2)cc1)c1ccccc1 (stereo not given), the Potency is reported as inconclusive: 3.16 µM [activator, partial curve].

From PubChem BioAssay AID485353 (National Center for Advancing Translational Sciences (NCATS), 2010)
Potency is the fitted concentration of half-maximal effect.
